Reference: PubChem BioAssay AID504774 (Drosophila RNAi Screening Center, 2011)
The screen tested about 23,000 reagents; this is a random part of those that have a named target and a result. 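Values are quantile-normalised luminescence on an arbitrary scale; higher means more cells surviving MMS.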 Names joined by + are all predicted targets of the reagent. Further read-outs or replicates are left out here.

Screen: 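Genes required for cells to withstand methyl methanesulphonate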 (primary screen)
System: Drosophila Kc167 cells
Reagents: long dsRNA against Drosophila genes, about 0.25 µg dsRNA per well
Time to read-out: about 6 days: 3 days knock-down, then 3 days with or without MMS
Treatment: methyl methanesulphonate 0.004% (w/v) for 3 days after knock-down
Read-out: 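ATP-dependent luminescence as a measure of live cells in MMS-exposed wells, quantile normalised within each plate, with replicate values also given as a mean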
Direction: mean viability with MMS and viability with MMS: higher = more surviving cells after MMS

Depletion of Orc6 [DRSC07497] resulted in: mean viability with MMS 3.52e6; viability with MMS, replicate 1 = 4.00e6. Against ss [DRSC17069], the entry reads mean viability with MMS 3.49e6; viability with MMS, replicate 1 = 4.00e6. Depletion of Cyp6g2 [DRSC07387] came out at: mean viability with MMS 3.63e6; viability with MMS, replicate 1 = 4.00e6. Mt2 [DRSC03374] showed mean viability with MMS 3.60e6; viability with MMS, replicate 1 = 4.19e6. Against CG14929 + CG4970 [DRSC02411] the deposit lists mean viability with MMS 3.49e6; viability with MMS, replicate 1 = 3.99e6. For CG14929 + CG4970 [DRSC02796], the values are mean viability with MMS 3.36e6; viability with MMS, replicate 1 = 3.96e6.

With knock-down of RPA3 [DRSC19658], the record shows mean viability with MMS 3.62e6; viability with MMS, replicate 1 = 4.06e6. Against CG7369 [DRSC11822], the values are mean viability with MMS 3.48e6; viability with MMS, replicate 1 = 3.94e6. With knock-down of Tsf3 [DRSC06849] the results were mean viability with MMS 3.47e6; viability with MMS, replicate 1 = 3.86e6. Vha16-1 [DRSC05020] scored mean viability with MMS 3.46e6; viability with MMS, replicate 1 = 4.00e6. Knock-down of CG32036 [DRSC10362] resulted in: mean viability with MMS 3.40e6; viability with MMS, replicate 1 = 3.86e6. With knock-down of mor [DRSC15378], the screen gave mean viability with MMS 3.45e6; viability with MMS, replicate 1 = 3.96e6.

Silencing of spn-B [DRSC17063] gave: mean viability with MMS 3.44e6; viability with MMS, replicate 1 = 3.95e6. dpr11 [DRSC12561] scored mean viability with MMS 3.40e6; viability with MMS, replicate 1 = 3.88e6. dpr11 [DRSC12562] gave mean viability with MMS 3.71e6; viability with MMS, replicate 1 = 4.16e6. Depletion of dpr11 [DRSC12563] came out at: mean viability with MMS 3.74e6; viability with MMS, replicate 1 = 4.07e6. After knock-down of CG6398 [DRSC19992], the record shows mean viability with MMS 3.70e6; viability with MMS, replicate 1 = 4.23e6. After knock-down of spri [DRSC17846], the screen gave mean viability with MMS 3.26e6; viability with MMS, replicate 1 = 3.73e6.

Against spri [DRSC17984], the entry reads mean viability with MMS 3.53e6; viability with MMS, replicate 1 = 4.04e6. Silencing of spri [DRSC17985] resulted in: mean viability with MMS 3.64e6; viability with MMS, replicate 1 = 4.07e6. spri [DRSC17986] showed mean viability with MMS 3.74e6; viability with MMS, replicate 1 = 4.18e6. spri [DRSC17988] scored mean viability with MMS 3.49e6; viability with MMS, replicate 1 = 3.93e6. For spri [DRSC17989], the values are mean viability with MMS 3.46e6; viability with MMS, replicate 1 = 3.90e6. With knock-down of spri [DRSC22927], the record shows mean viability with MMS 3.48e6; viability with MMS, replicate 1 = 3.98e6.

For tef [DRSC07301] the deposit lists mean viability with MMS 3.49e6; viability with MMS, replicate 1 = 3.94e6. Against tef [DRSC22041] the deposit lists mean viability with MMS 3.73e6; viability with MMS, replicate 1 = 4.19e6. Against BomS4 [DRSC22509], the entry reads mean viability with MMS 3.53e6; viability with MMS, replicate 1 = 3.97e6. Against CG17687 [DRSC10279], the entry reads mean viability with MMS 3.60e6; viability with MMS, replicate 1 = 3.96e6. Against Gadd45 [DRSC06033], the values are mean viability with MMS 3.58e6; viability with MMS, replicate 1 = 4.02e6. Silencing of CG33775 [DRSC05353] came out at: mean viability with MMS 3.65e6; viability with MMS, replicate 1 = 4.04e6.

Against sut1 [DRSC07700], the entry reads mean viability with MMS 3.71e6; viability with MMS, replicate 1 = 4.08e6. Silencing of Spn85F [DRSC14545] came out at: mean viability with MMS 1.75e6; viability with MMS, replicate 1 = 4.04e6. With knock-down of CG18745 [DRSC15382] the results were mean viability with MMS 3.58e6; viability with MMS, replicate 1 = 4.09e6. For ND-39 [DRSC11791], the values are mean viability with MMS 3.52e6; viability with MMS, replicate 1 = 3.96e6. With knock-down of SdhA [DRSC07547], the screen gave mean viability with MMS 3.60e6; viability with MMS, replicate 1 = 4.11e6. lncRNA:sphinx + ATPsynF [DRSC17191] scored mean viability with MMS 3.39e6; viability with MMS, replicate 1 = 3.77e6.

CG14947 [DRSC02429] scored mean viability with MMS 3.62e6; viability with MMS, replicate 1 = 4.19e6. AdamTS-A [DRSC14992] scored mean viability with MMS 3.25e6; viability with MMS, replicate 1 = 3.74e6. Depletion of AdamTS-A [DRSC15966] came out at: mean viability with MMS 3.62e6; viability with MMS, replicate 1 = 4.19e6. PH4alphaMP [DRSC17031] showed mean viability with MMS 3.59e6; viability with MMS, replicate 1 = 4.10e6. Against CG14589 [DRSC04866] the deposit lists mean viability with MMS 3.48e6; viability with MMS, replicate 1 = 4.03e6. Tsf1 [DRSC20296] scored mean viability with MMS 3.47e6; viability with MMS, replicate 1 = 3.88e6.

For CG15208 [DRSC19654] the deposit lists mean viability with MMS 3.54e6; viability with MMS, replicate 1 = 4.06e6. With knock-down of pot [DRSC19850], the screen gave mean viability with MMS 3.59e6; viability with MMS, replicate 1 = 4.14e6. After knock-down of Lsm11 [DRSC06238] the results were mean viability with MMS 3.45e6; viability with MMS, replicate 1 = 3.86e6.

No new results follow: entries from further up.
dpr11 [DRSC12562]: mean viability with MMS = 3.71e6; viability with MMS, replicate 1 = 4.16e6
dpr11 [DRSC12563]: mean viability with MMS = 3.74e6; viability with MMS, replicate 1 = 4.07e6
CG6398 [DRSC19992]: mean viability with MMS = 3.70e6; viability with MMS, replicate 1 = 4.23e6
